Results are given in words; binding and its absence hold for the method and conditions named. Binding can be weak; no strength is given. Sequences can lack the tags named with a protein. For part of these data: In cells and extracts the contact can be indirect.
Assays:
[1] = target: BK-SSF (pGBKT7-SSF) (Arabidopsis thaliana); assay: two-hybrid; yeast strain AH109; pGBKT7-SSF (BD) with pGADT7-SKB1 (AD); interaction selected on SD/-Leu/-Trp/-His/-Ade; up to 4 d at 30 C
[2] = target: SSF-nYFP (pSPYNE-SSF-YFP) (Arabidopsis thaliana); assay: split reporter; BiFC with split YFP in A. thaliana protoplasts; YFP fluorescence by confocal microscopy 2 d after transformation
[3] = target: cLUC-SSF (772-cLUC-SSF) (Arabidopsis thaliana); assay: split reporter; luciferase complementation (LCI) in N. benthamiana leaves, Agrobacterium GV3101 infiltration; read 48 h after injection

B1: AD-SKB1 (pGADT7-SKB1) (protein, UniProt Q8GWT4 1-642)
chain: MPLGERGGWERTESRYCGVETDFSNDVTHLLNFNISTGGFDYVLAPLVDPSYRPSLVEGNGVDTQVLPVCGSDLVLSPSQWSSHVVGKISSWIDLDSEDEVLRMDSETTLKQEIAWATHLSLQACLLPTPKGKSCANYARCVNQILQGLTTLQLWLRVPLVKSEGDSMDDTSEGLNDSWELWNSFRLLCEHDSKLSVALDVLSTLPSETSLGRWMGESVRAAILSTDAFLTNARGYPCLSKRHQKLIAGFFDHAAQVVICGKPVHNLQKPLDSSSEGTEKNPLRIYLDYVAYLFQKMESLSEQERIELGYRDFLQAPLQPLMDNLEAQTYETFERDSVKYIQYQRAVEKALVDRVPDEKASELTTVLMVVGAGRGPLVRASLQAAEETDRKLKVYAVEKNPNAVVTLHNLVKMEGWEDVVTIISCDMRFWNAPEQADILVSELLGSFGDNELSPECLDGAQRFLKPDGISIPSSYTSFIQPITASKLYNDVKAHKDLAHFETAYVVKLHSVAKLAPSQSVFTFTHPNFSTKVNNQRYKKLQFSLPSDAGSALVHGFAGYFDSVLYKDVHLGIEPTTATPNMFSWFPIFFPLRKPVEVHPDTPLEVHFWRCCGSSKVWYEWSVSSPTPSPMHNTNGRSYWVGL
Q: For B1, which binding [1] is on record?
A: The binding was “binds”.

B2: SKB1-cYFP (pSPYCE-SKB1-YFP) (protein, UniProt Q8GWT4 1-642)
chain: B1 chain
Q: B2 was tested. Which binding [2] did it give?
A: The binding was “binds”.

B3: SKB1-nLUC (771-nLUC-SKB1) (protein, UniProt Q8GWT4 1-642)
chain: B1 chain
Q: Which binding [3] does the source give for B3 here?
A: Its binding is “binds”.

From article PMC10941358
